Results from PubChem BioAssay AID330 (DTP/NCI, 2004).
The list shows only some results of the screen, not a fair sample: it is rich in T/C values a quarter to a half above the control, in often repeated tests (any T/C) and in doses without a T/C. Other doses and runs of a compound stand elsewhere. T/C: endpoint of the treated group in % of that of the vehicle group. Some doses have a count of surviving animals in place of a T/C: the source files T/C as zero there, which appears to mark a toxic dose or a test without result, not a measured value. Some survivor counts are full or nearly so, which does not show that the dose was tolerated: survival well below the control is almost never listed, so the zero probably covers shortened survival too. Survivors were counted at the toxicity check, usually on the fifth day, unless a day is given; later deaths do not show. Schedules are NCI's codes, read here as Q, the interval in days (D) or hours (H), X, the number of doses. Signs of the kind (2×) give the number of equal values in this list. Some entries were tested several times; the values are given in rising order. Where survival is the endpoint, the PubChem record calls one and a half times the control and up active, and a quarter to a half above the control has no call in these data; cut-offs in other NCI protocols can differ. Some schedules carry Z or #; the key to these is not given.

System: P388 leukemia ip, CD2F1 mice, survival T/C
Test: NCI In Vivo Anticancer Drug Screen. Data for tumor model P388 Leukemia (intraperitoneal) in CD2F1 (CDF1) mice
Conditions: T/C endpoint: median survival time, higher T/C = longer survival
[1] = dose: 0.2 mg/kg/injection, schedule: Q01DX009 (ip), vehicle: distilled water + Tween-80
[2] = dose: 0.4 mg/kg/injection, schedule: Q01DX009 (ip), vehicle: water

## COC1=C(N)C(=O)c2nc(-c3nc(C(=O)O)c(C)c(-c4ccc(OC)c(OC)c4O)c3N)ccc2C1=O
dose: 0.1 mg/kg/injection, schedule: Q01DX009 (ip), vehicle: other, evaluated on day 30
  T/C: 100, 105, 117, 123, 129, 137 % of control
dose: 0.1 mg/kg/injection, schedule: Q01DX009 (ip), vehicle: other, evaluated on day 35
  T/C: 130 % of control
dose: 0.1 mg/kg/injection, schedule: Q01DX009 (ip), vehicle: other, evaluated on day 45
  T/C: 131 % of control
dose: 0.1 mg/kg/injection, schedule: Q01DX009 (ip), vehicle: other
  survivor count: 6 of 6
dose: 0.1 mg/kg/injection, schedule: Q01DX009 (ip), vehicle: water
  T/C: 112, 123, 132, 135, 139, 140 (2×), 141, 143 % of control
dose: 0.1 mg/kg/injection, schedule: Q## X024 (ip), vehicle: other
  T/C: 130 % of control
dose: 0.12 mg/kg/injection, schedule: Q01DX009 (ip), vehicle: dioxane
  T/C: 130 % of control
dose: 0.12 mg/kg/injection, schedule: Q01DX009 (ip), vehicle: saline with Tween-80
  T/C: 140 % of control
dose: 0.16 mg/kg/injection, schedule: Q01DX009 (ip), vehicle: distilled water + Tween-80
  T/C: 133 % of control
dose: 0.18 mg/kg/injection, schedule: Q01DX009 (ip), vehicle: dioxane
  T/C: 126 % of control
dose: 0.18 mg/kg/injection, schedule: Q01DX009 (ip), vehicle: saline with Tween-80
  T/C: 125 % of control
[1]
  T/C: 96, 100, 101, 108 % of control
  survivor count: 6 of 6
dose: 0.2 mg/kg/injection, schedule: Q01DX009 (ip), vehicle: other, evaluated on day 5
  T/C: 84 % of control
dose: 0.2 mg/kg/injection, schedule: Q01DX009 (ip), vehicle: other, evaluated on day 30
  T/C: 90, 106, 110, 123 % of control
dose: 0.2 mg/kg/injection, schedule: Q01DX009 (ip), vehicle: other, evaluated on day 35
  T/C: 130 % of control
dose: 0.2 mg/kg/injection, schedule: Q01DX009 (ip), vehicle: other, evaluated on day 45
  T/C: 115 % of control
dose: 0.2 mg/kg/injection, schedule: Q01DX009 (ip), vehicle: other
  survivor count: 6 of 6 and 8 of 8
dose: 0.2 mg/kg/injection, schedule: Q01DX009 (ip), vehicle: water
  T/C: 86, 94, 104, 123, 127, 137 (2×), 138, 149 % of control
dose: 0.4 mg/kg/injection, schedule: Q01DX001 (ip), vehicle: other
  T/C: 130 % of control
dose: 0.4 mg/kg/injection, schedule: Q01DX009 (ip), vehicle: distilled water + Tween-80
  survivor count: 6 of 6 (2×)
dose: 0.4 mg/kg/injection, schedule: Q01DX009 (ip), vehicle: other, evaluated on day 5
  T/C: 60 % of control
dose: 0.4 mg/kg/injection, schedule: Q01DX009 (ip), vehicle: other, evaluated on day 30
  T/C: 87 and 92 % of control
dose: 0.4 mg/kg/injection, schedule: Q01DX009 (ip), vehicle: other
  survivor count: 3 of 6, 6 of 6 (2×), 8 of 8
[2]
  T/C: 95, 100, 119, 122, 132 % of control
  survivor count: 5 of 6, 3 of 3, 6 of 6 (2×)
dose: 0.63 mg/kg/injection, schedule: Q01DX009 (ip), vehicle: distilled water + Tween-80
  survivor count: 4 of 6 and 6 of 6
dose: 1.25 mg/kg/injection, schedule: Q01DX009 (ip), vehicle: distilled water + Tween-80
  survivor count: 1 of 6 and 2 of 6
dose: 1.25 mg/kg/injection, schedule: Q01DX009 (ip), vehicle: saline with Tween-80
  T/C: 145 % of control
dose: 2.5 mg/kg/injection, schedule: Q01DX009 (ip), vehicle: distilled water + Tween-80
  survivor count: 0 of 6
dose: 5.0 mg/kg/injection, schedule: Q01DX009 (ip), vehicle: distilled water + Tween-80
  survivor count: 0 of 6
dose: 5.0 mg/kg/injection, schedule: Q01DX009 (ip), vehicle: saline with Tween-80
  survivor count: 6 of 6
dose: 6.4 mg/kg/injection, schedule: Q01DX001 (oral), vehicle: other
  survivor count: 8 of 10
dose: 10.0 mg/kg/injection, schedule: Q01DX009 (ip), vehicle: distilled water + Tween-80
  survivor count: 0 of 6
dose: 100.0 mg/kg/injection, schedule: Q01DX009 (ip), vehicle: distilled water + Tween-80
  T/C: 135 % of control
dose: 50.0 micrograms/kg/injection, schedule: Q01DX009 (ip), vehicle: other
  T/C: 128 % of control
dose: 100.0 micrograms/kg/injection, schedule: Q01DX009 (ip), vehicle: other
  T/C: 129 % of control
dose: 200.0 micrograms/kg/injection, schedule: Q01DX009 (ip), vehicle: other
  T/C: 129 % of control
